Reference: paper PMC7819943, “Rice protein-binding microarrays: a tool to detect cis-acting elements near promoter regions in rice”
The other results are listed elsewhere or left out.

Sequences of proteins named here, by UniProt entry; tags and fusion partners are left off.
UniProt Q0JBA9, entry or part of it: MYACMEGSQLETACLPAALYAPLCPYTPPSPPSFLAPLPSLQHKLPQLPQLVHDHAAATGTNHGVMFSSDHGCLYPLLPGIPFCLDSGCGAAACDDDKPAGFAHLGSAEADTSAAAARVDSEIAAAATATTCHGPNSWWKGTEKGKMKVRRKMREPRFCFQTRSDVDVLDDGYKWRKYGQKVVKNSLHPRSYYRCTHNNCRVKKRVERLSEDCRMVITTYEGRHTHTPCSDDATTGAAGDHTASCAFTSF

Target: OsWRKY34 (Oryza sativa, UniProt Q0JBA9 1-250)
Assay: protein-binding microarray (RPBM); PBS, 2% BSA, 51.3 ng/ul salmon testes DNA, 50 uM zinc acetate, 200 nM TF, 25 C, 1 h; high values mean tight binding
Conditions: protein: recombinant; tags: N-terminal polyhistidine and DsRed monomer fusion (pET32a); label: CyDye5-dUTP incorporated in the synthesized complementary strand; 3' TTTTT single-stranded linker to array surface; dsDNA, one strand shown
Procedure, shortened: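 For the binding signal, per-feature fluorescence intensity was read in arbitrary units on an Axon 4000B scanner. Before scanning, a 2% BSA-blocked custom Agilent array made double-stranded with Cy5-dUTP was washed after 1 h at 25 °C with 200 nM protein and 50 µM zinc acetate. The proteins were Ni–NTA-purified transcription factors with N-terminal polyhistidine and DsRed fusions, expressed in E. coli BL21-CodonPlus.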

Row | Sequence | binding signal
1 | ACGACTGTAATTATTTTGGAACGGAGGTAGCAGTGATTTTCGGAGTCACCTAGTGCAG | 11400 fluorescence intensity (a.u.)
2 | GCACCCGTGCTTCGCCACTATCACCACCATCCTCGTCGGACGGAGTCACCTAGTGCAG | 8630 fluorescence intensity (a.u.)
3 | TTCCACAGCTTTCTTGAACTTCTCTTGTGCCTCACTCACTCGGAGTCACCTAGTGCAG | 8170 fluorescence intensity (a.u.)
4 | ACGAAAGTTATATTCTGCACCTGTTTTTTTAAATACTTTTCGGAGTCACCTAGTGCAG | 10400 fluorescence intensity (a.u.)
5 | TCCTAATCCAGCATTTGATCCTCCACTAATCCTACCAATTCGGAGTCACCTAGTGCAG | 9650 fluorescence intensity (a.u.)
6 | TTGGATTTGGGTTAATTTGCTTGATGTATGGTGGACGGATCGGAGTCACCTAGTGCAG | 10200 fluorescence intensity (a.u.)
7 | AGCCCTTGCTATTCAGGTTTCCTTTTATTGGGTACTAGTGCGGAGTCACCTAGTGCAG | 9270 fluorescence intensity (a.u.)
8 | GCAACGGGTATTCTCATCCTCGTTCTCTCCAATCCCATTCCGGAGTCACCTAGTGCAG | 8680 fluorescence intensity (a.u.)
9 | TTTCCATGTGTAACTCTAATCGATTATTTTGATCCTATAACGGAGTCACCTAGTGCAG | 10700 fluorescence intensity (a.u.)
10 | GTGGGGTGGCATGGTGAGTAATTTTTCACTCAATAATCTACGGAGTCACCTAGTGCAG | 9320 fluorescence intensity (a.u.)
11 | AGGTAGCGTGGCCTTTTTGTCCTTTTAGGTGGTGTTTGACCGGAGTCACCTAGTGCAG | 10900 fluorescence intensity (a.u.)
12 | CCTCATCACAAAATGTTTGACGCTGTTGACTTTTTTAAAACGGAGTCACCTAGTGCAG | 15900 fluorescence intensity (a.u.)
13 | CTATCTTGACCTCATCCCGTCGACTCCATGCCAATATGCCCGGAGTCACCTAGTGCAG | 11800 fluorescence intensity (a.u.)
14 | GACTCTCTCTCTCTCTCTCAAATCTACATCTATGATCTGTCGGAGTCACCTAGTGCAG | 9630 fluorescence intensity (a.u.)
15 | GTGTGGTCGTCGTGTCGGCGGCGGCGGCGGCGGCGGGAGGCGGAGTCACCTAGTGCAG | 14300 fluorescence intensity (a.u.)
16 | ATCCGTTTCAACAATCACCGCAGCACTCCTCTACCTTACTCGGAGTCACCTAGTGCAG | 8440 fluorescence intensity (a.u.)
17 | CTTCTTTTATTACTACTACTATGTTATTATATTTTATTCCCGGAGTCACCTAGTGCAG | 10400 fluorescence intensity (a.u.)
18 | GCCTAATGAGCTGCCACTTGTCCTAATGACTCCACATTTTCGGAGTCACCTAGTGCAG | 11100 fluorescence intensity (a.u.)
19 | GCCGGCGCTCCGACCAGCACTCGCCGTGCGTTTCTCTTGCCGGAGTCACCTAGTGCAG | 9330 fluorescence intensity (a.u.)
20 | AATTATTATTTATTTTATTTGTGACTTACTTTATTATCTACGGAGTCACCTAGTGCAG | 8240 fluorescence intensity (a.u.)
21 | TCCAAAGTACTCACTCGTACGATATCATTTCCTAAATTTACGGAGTCACCTAGTGCAG | 8660 fluorescence intensity (a.u.)
22 | GTGTTTATAGAGGTTGTCTGCCATAGTGCCCGTGTTCTCCCGGAGTCACCTAGTGCAG | 8760 fluorescence intensity (a.u.)
23 | CAGCCCATACCAGCCCAGCCCATTACCTCGCGGCTCGCGCCGGAGTCACCTAGTGCAG | 9330 fluorescence intensity (a.u.)
24 | ACCATAAAACCGGACATTCTTCACCCCTAACTATGTAATCCGGAGTCACCTAGTGCAG | 11200 fluorescence intensity (a.u.)
25 | ATAACTATAGTCATAGTTTTCCGCGTCCAACTTTAATTATCGGAGTCACCTAGTGCAG | 8200 fluorescence intensity (a.u.)
26 | GGTAGGGGAGGAGGAATAATGCAGGCAGGATGTTACTATGCGGAGTCACCTAGTGCAG | 8930 fluorescence intensity (a.u.)
27 | TTTAACACATATTTGCATCAACAAATATCCTCTTATTGAACGGAGTCACCTAGTGCAG | 8080 fluorescence intensity (a.u.)

As entered above:
GCAACGGGTATTCTCATCCTCGTTCTCTCCAATCCCATTCCGGAGTCACCTAGTGCAG – binding signal: 8680 fluorescence intensity (a.u.)
ACCATAAAACCGGACATTCTTCACCCCTAACTATGTAATCCGGAGTCACCTAGTGCAG – binding signal: 11200 fluorescence intensity (a.u.)
TTGGATTTGGGTTAATTTGCTTGATGTATGGTGGACGGATCGGAGTCACCTAGTGCAG – binding signal: 10200 fluorescence intensity (a.u.)
TCCTAATCCAGCATTTGATCCTCCACTAATCCTACCAATTCGGAGTCACCTAGTGCAG – binding signal: 9650 fluorescence intensity (a.u.)

(list continues)

Row | Sequence | binding signal
28 | GCGGCCAGGCCACCTCCAGCTCTTTTCACTCCTGGCTAACCGGAGTCACCTAGTGCAG | 9500 fluorescence intensity (a.u.)
29 | CCGGTATTTCTGTGGTTAGGGGACGATTTTGTAACTCGATCGGAGTCACCTAGTGCAG | 8660 fluorescence intensity (a.u.)
30 | AATCATATTTTTATTCTGTCTTTGTATAGTCACCTTGTGACGGAGTCACCTAGTGCAG | 8360 fluorescence intensity (a.u.)
31 | TTGCTTGTTGATTGATTCGTTTTTGTCAATTTTGAAGTTTCGGAGTCACCTAGTGCAG | 8470 fluorescence intensity (a.u.)
32 | TCCTCCCCACTGCATCTGCCCGCCACTATTCTCGAGTCCCCGGAGTCACCTAGTGCAG | 9940 fluorescence intensity (a.u.)
33 | CACCGATAACTTTCTTGTTTTACTTACCCCTATCTTCATCCGGAGTCACCTAGTGCAG | 8420 fluorescence intensity (a.u.)
34 | TGCCTTTCTACACATACACCGGACATCTTTCTGAAATCTACGGAGTCACCTAGTGCAG | 12100 fluorescence intensity (a.u.)
35 | ATCTTTTGAGTTTTATACATACAAATTTTGTCATTTTTATCGGAGTCACCTAGTGCAG | 8090 fluorescence intensity (a.u.)
36 | CTCCGTCCCTCCGTACCAGTTTAAATGCAGCCGTGGATTCCGGAGTCACCTAGTGCAG | 8360 fluorescence intensity (a.u.)
37 | ACTCCTGCCATTATCCATTCGCCCGTTCTCTCTCTCGCCTCGGAGTCACCTAGTGCAG | 13800 fluorescence intensity (a.u.)
38 | CAAGGACGAATCCAGTATAGGGGCGGTGGGGTCTCGAACCCGGAGTCACCTAGTGCAG | 10400 fluorescence intensity (a.u.)
39 | ACATGTGCTATTTGTATGTTTTTGTGCGGACTACAATCAGCGGAGTCACCTAGTGCAG | 8220 fluorescence intensity (a.u.)
40 | TCTCTACTCGATACACAGCAGCAGCAGCAGCCGCCTAAACCGGAGTCACCTAGTGCAG | 8560 fluorescence intensity (a.u.)
41 | TTATTGCTCCTGGTTTTTTTTATATTGGGTAGGACCCAATCGGAGTCACCTAGTGCAG | 8920 fluorescence intensity (a.u.)
42 | GTGCCCCGGTTGCTCACATCACACCACGCTTGCTTCGCTTCGGAGTCACCTAGTGCAG | 8570 fluorescence intensity (a.u.)
43 | TATAACTTTCATACTGTACTTGTCATTCTCGGCCTGGATTCGGAGTCACCTAGTGCAG | 12500 fluorescence intensity (a.u.)
44 | CGTCGCCGCCTCCGCCTCGCTCCGATCCCCATTCCGCGGTCGGAGTCACCTAGTGCAG | 9810 fluorescence intensity (a.u.)
45 | ATCTGATTGCCCTGTAGATTTTGCACCGACGACGTTTTTACGGAGTCACCTAGTGCAG | 8600 fluorescence intensity (a.u.)
46 | AATTGACCCTTTCACTACCACATCATCAAAACCATCCATCCGGAGTCACCTAGTGCAG | 9020 fluorescence intensity (a.u.)
47 | CTACCTTAGCACCTTGCCTCGCAGGTTTCACTGCCAGAACCGGAGTCACCTAGTGCAG | 9240 fluorescence intensity (a.u.)
48 | ACCTCGTTCCTTGTGTCGTTATGCCGTCCCGTCTTCCACCCGGAGTCACCTAGTGCAG | 10200 fluorescence intensity (a.u.)
49 | ATCTCACATTCTCACTGTACAGTGCCGAACAACGATGGCTCGGAGTCACCTAGTGCAG | 8570 fluorescence intensity (a.u.)
50 | ACCATCTGTAATTATAAATTTATAATATGCTCATTTGACACGGAGTCACCTAGTGCAG | 8570 fluorescence intensity (a.u.)
51 | GATTGATATGATCTTGCCCTGTTCTCAAGCCATAGCTATTCGGAGTCACCTAGTGCAG | 9050 fluorescence intensity (a.u.)
52 | AACTTCCAACTTTTCCGTCTCATCATTTCAATTTCAATTACGGAGTCACCTAGTGCAG | 11200 fluorescence intensity (a.u.)
53 | CACTCACTCACTCACTGACAGTATCGGTTGCCTAGCTATACGGAGTCACCTAGTGCAG | 11000 fluorescence intensity (a.u.)
54 | ACAGCCTTAACAACTGAACTGAATATGTACGTGTGACTCCCGGAGTCACCTAGTGCAG | 9590 fluorescence intensity (a.u.)
